Source: US20210340272A1
No constants are given. Whether binding was seen depends on the method and setting. Binding calls can cover weak binding; strength is not graded here.

Target: Mouse SA (mouse)
Assay: Octet RED96 biolayer interferometry; antibody loaded on AHC biosensor, dipped into mouse serum albumin at 200 nM

B1: AWT-P494 (humanized P367) anti-HSA antibody (VHH)
VHH: EVQLVESGGGLVQPGGSLRLSCAASGSTWSINTLAWYRQAPGKQRDLVARISSGGSTYYADSVKGRFTISRDNSKNTLYLQMNSLRAEDTAVYYCYAQSTWYPPSWGQGTLVTVSS
  binding: binds
